Log data for 67 molecules are collected here from the supplement of paper PMC7024190.

SMILES strings stand for the structures. Structures can show the parent of a compound that is named as a salt. Some of the results follow. Repeats in this data set agree poorly, so a single value says little.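 Human embryonic kidney cells were transiently transfected with a plasmid bearing a Renilla luciferase gene under the HSV-TK promoter. This first-round screen tests roughly ten thousand compounds for ones that increase reporter output.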

For the test, the system named is HEK 293FT. Put plainly: log relative Renilla luciferase luminescence (reporter expression vs reference, reference not stated) (log (base not stated)); higher = higher recombinant reporter expression. Particulars: 10 µM; time after transfection 48 h.
For `Cc1cc2c(C(C)C)c(O)c(O)c(C=O)c2c(O)c1-c1c(C)cc2c(C(C)C)c(O)c(O)c(C=O)c2c1O` [gossypol], the log is -0.555.

With `CC(=O)Nc1cc([As](=O)(O)O)ccc1O` [acetarsol], the log was -0.126.

With `CC(=O)[O][Hg][c]1ccccc1` [phenylmercuric acetate], the log is -1.38.

As for `O=c1[nH]c2ccccc2n1C1CCN(CCCC(c2ccc(F)cc2)c2ccc(F)cc2)CC1` [pimozide], the log was -0.149.

As for `COc1cccc2c1cc([N+](=O)[O-])c1c(C(=O)O)cc3c(c12)OCO3` [aristolochic acid], the log is 0.0285.

For the molecule `C#CCN(C)[C@H](C)Cc1ccccc1` [selegiline hydrochloride], the log stood at 0.132.

For `CN(C)C(=O)Oc1ccc[n+](C)c1` [pyridostigmine bromide], the log turned out to be 0.139.

In the case of `C[C@@H]1O[C@@H](O[C@@H]2C=C3CC[C@@H]4[C@H](CC[C@]5(C)[C@@H](c6ccc(=O)oc6)CC[C@]45O)[C@@]3(C)CC2)[C@H](O)[C@H](O)[C@H]1O` [proscillaridin], the log was -1.32.

As to `NCCc1ccccc1` [phenethylamine hydrochloride], the log is -0.112.

As to `NCCCNCCSP(=O)(O)O` [amifostine], the log is -0.0467.

For `c1ccc2c(c1)[nH]c1cnccc12` [norharman], the log came to 0.0492.

On to `O=[N+]([O-])OCC(CO[N+](=O)[O-])O[N+](=O)[O-]` [nitroglycerin], for which the log is 0.234.

`COc1cc2occc2c2oc(=O)ccc12` [isobergaptene]: the log came to 0.061.

For `CCCCCCCCC(=O)NCc1ccc(O)c(OC)c1` [nonivamide], the log is 0.0161.

Turning to `Nc1ccc([As](=O)(O)O)cc1` [arsanilic acid], the log worked out at 0.539.

Regarding `CC(C)c1ccc2c(c1O)CC[C@H]1C3=C(CC[C@]21C)C(=O)OC3` [triptophenolide], the log was -0.124.

For the molecule `CN1CCN(C(=O)O[C@H]2c3nccnc3C(=O)N2c2ccc(Cl)cn2)CC1` [eszopiclone], the log is -0.0282.

`O=C1CC[C@@]2(O)[C@H]3Cc4ccc(O)c5c4[C@@]2(CCN3CC2CC2)[C@H]1O5` [naltrexone hydrochloride]: the log is -0.009.

With `COc1ccc2c(c1O)-c1c(OC)c(OC)cc3c1[C@H](C2)N(C)CC3` [s-isocorydine (+)], the log was 0.0893.

Regarding `NC(=O)c1cc([N+](=O)[O-])cc([N+](=O)[O-])c1` [nitromide], the log is -0.0539.

As for `CN[C@@H]1[C@@H](O)[C@@H](O[C@@H]2[C@@H](O)[C@H](O[C@H]3O[C@H](CN)CC[C@H]3N)[C@@H](N)C[C@H]2N)OC[C@]1(C)O.CN[C@@H]1[C@@H](O)[C@@H](O[C@@H]2[C@@H](O)[C@H](O[C@H]3O[C@H]([C@@H](C)N)CC[C@H]3N)[C@@H](N)C[C@H]2N)OC[C@]1(C)O.CN[C@@H]1[C@@H](O)[C@@H](O[C@@H]2[C@@H](O)[C@H](O[C@H]3O[C@H]([C@@H](C)NC)CC[C@H]3N)[C@@H](N)C[C@H]2N)OC[C@]1(C)O` [gentamicin sulfate], the log is 0.121.

Take `C=C/C=C\CC1=C(C)[C@@H](OC(=O)[C@@H]2[C@@H](/C=C(\C)C(=O)OC)C2(C)C)CC1=O.C=C/C=C\CC1=C(C)[C@@H](OC(=O)[C@@H]2[C@@H](C=C(C)C)C2(C)C)CC1=O` [pyrethrins]: the log is -0.251.

For `O=C(O)CCCO` [sodium oxybate], the log was found to be 0.0623.

For the molecule `NCc1cccnc1` [picolamine], the log was found to be 0.127.

Regarding `CC(NC(C)(C)C)C(=O)c1cccc(Cl)c1` (configuration not stated) [bupropion], the log is -0.00825.

For the molecule `CCOC(=O)CC(SP(=S)(OC)OC)C(=O)OCC` (configuration not stated) [malathion], the log amounted to 0.109.

Take `NCC(CC(=O)O)c1ccc(Cl)cc1` (configuration not stated) [baclofen]: the log was 0.0328.

For the molecule `CC(=O)[C@H]1CC[C@H]2[C@@H]3CC[C@H]4C[C@H](O)CC[C@]4(C)[C@H]3CC[C@]12C` [allopregnanolone], the log was determined as 0.101.

With `C=CCSSCC=C` [garlicin], the log stood at 0.0271.

As for `CC(N)Cc1ccc(O)cc1` (configuration not stated) [hydroxyamphetamine hydrobromide], the log was -0.0119.

As for `CCOC(=O)C1C(C=C(C)C)C1(C)C` (configuration not stated) [chrysanthemic acid, ethyl ester], the log came to 0.117.

For `COC1=C[C@@H]2[C@@H]3Cc4ccc(OC)c(O)c4[C@]2(CCN3C)CC1=O` [sinomenine], the log is -0.139.

Turning to `O=[N+]([O-])C(Br)(CO)CO` [bronopol], the log was -0.776.

Regarding `NC1=NC(=O)C(c2ccccc2)O1` (configuration not stated) [pemoline], the log was -0.012.

As for `O=C1C=CC(=O)c2ccccc21` [1,4-naphthoquinone], the log was -0.0284.

`C[C@@H]1O[C@@H](O[C@H]2CC[C@]3(C=O)[C@H]4CC[C@]5(C)[C@@H](C6=CC(=O)OC6)CC[C@]5(O)[C@@H]4CC[C@]3(O)C2)[C@H](O)[C@H](O)[C@H]1O` [convallatoxin]: the log was -1.6.

For `CN1[C@@H]2C[C@@H](OC(=O)[C@H](CO)c3ccccc3)C[C@H]1[C@@H]1O[C@@H]12` [scopolamine hydrobromide], the log is -0.0115.

`CC1(C)C2CC(=O)[C@]3(C)C(CC[C@@]4(C)[C@H](c5ccoc5)OC(=O)C5OC543)[C@@]2(C)[C@@H](O)C[C@H]1O` (some centres not stated) [1,3-dideacetyl-7-deacetoxy-7-oxokhivorin]: the log was 0.194.

Consider `CNc1ccccc1C(=O)O` [n-methylanthranilic acid], for which the log was 0.0878.

Take `CN1C[C@H](C(=O)N[C@]2(C)O[C@@]3(O)[C@@H]4CCCN4C(=O)[C@H](Cc4ccccc4)N3C2=O)C=C2c3cccc4[nH]cc(c34)C[C@H]21` [ergotamine tartrate]: the log worked out at 0.0949.

As for `[O-][n+]1ccccc1[S-].[O-][n+]1ccccc1[S-].[Zn+2]` [pyrithione zinc], the log is -1.28.

With `CCC(C)C(=O)O[C@@H]1C[C@@]2(C)[C@H](c3ccoc3)OC(=O)CC23OC2(C)O[C@]14[C@]1(C)[C@@H](CC(=O)OC)C5(C)CC1(O)[C@](O)(C5OC(=O)C1(C)OC1C)[C@@H](OC(C)=O)[C@]34O2` (some centres not stated) [utilin], the log amounted to 0.29.

In the case of `C=CCc1ccc2c(c1)OCO2` [safrole], the log is -0.00179.

As to `COP(=O)(OC)C(O)C(Cl)(Cl)Cl` (configuration not stated) [trichlorfon], the log came out at 0.505.

For `C[C@@H]1C(=O)O[C@H]2[C@H]1CC[C@@]1(C)C=CC(=O)[C@@]3(C)O[C@@]213` [epoxy (4,5alpha)-4,5-dihydrosantonin], the log was -0.000568.

Take `C=CCN1CC[C@]23c4c5ccc(O)c4O[C@H]2C(=O)CC[C@@]3(O)[C@H]1C5` [naloxone hydrochloride]: the log was determined as 0.0918.

Consider `O=c1n(Cl)c(=O)n(Cl)c(=O)n1Cl` [symclosene], for which the log stood at 0.0948.

In the case of `C[C@]12CCC(=O)C=C1C=C[C@@H]1[C@@H]2CC[C@@]2(C)[C@H]1CC[C@@]2(O)CCC(=O)O` [canrenoic acid, potassium salt], the log is 0.0669.

Turning to `CC[C@@H](C(=O)[C@@H](C)[C@@H](O)[C@H](C)[C@@H]1O[C@@H]([C@@H](CC)C(=O)O)CC[C@@H]1C)[C@H]1O[C@]2(C=C[C@@H](O)[C@]3(CC[C@@](C)([C@H]4CC[C@](O)(CC)[C@H](C)O4)O3)O2)[C@H](C)C[C@@H]1C` [salinomycin, sodium], the log was -1.96.

Turning to `CC(=O)O[C@@H]1[C@H]2CC[C@H]3[C@@](C)(O)[C@@H]4C[C@H](O)C(C)(C)[C@@]4(O)[C@H](O)C[C@@]13C[C@@]2(C)O` [grayanotoxin i], the log stood at 0.0183.

Regarding `Cc1cccc(C)c1NC(=O)CN1CCCC1=O` [nefiracetam], the log was determined as 0.0463.

Regarding `CO[C@H]1[C@H](O)[C@H](O[C@H]2CC[C@@]3(C=O)[C@H](CC[C@@H]4[C@@H]3CC[C@]3(C)[C@@H](C5=CC(=O)OC5)CC[C@]43O)C2)O[C@@H](C)[C@@H]1O` [peruvoside], the log was -1.55.

As for `S=C=NCc1ccccc1` [benzyl isothiocyanate], the log worked out at 0.117.

`COP(=O)(OC)OC=C(Cl)Cl` [dichlorvos]: the log turned out to be 0.0536.

As to `c1ccc2c(c1)Nc1ccccc1S2` [phenothiazine], the log is -0.0745.

In the case of `C[C@]12CC[C@H]3[C@@H](CCC4=CC(=O)CC[C@@]43C)[C@@H]1CC[C@@H]2O` [testosterone], the log was -0.689.

Regarding `O=c1c2ccccc2[se]n1-c1ccccc1` [ebselen], the log is -0.174.

With `Cc1ccc(/N=C/N(C)/C=N/c2ccc(C)cc2C)c(C)c1` [amitraz], the log is -1.41.

For `O=c1ccc2cc(O[C@@H]3O[C@H](CO)[C@@H](O)[C@H](O)[C@H]3O)c(O)cc2o1` [esculin monohydrate], the log was determined as 0.147.

For the molecule `COc1cc2c3cc1Oc1c(OC)c(OC)cc4c1[C@@H](Cc1cccc(c1)Oc1ccc(c(O)c1)C[C@@H]3N(C)CC2)N(C)CC4` [berbamine hydrochloride], the log was determined as 0.0908.

For the molecule `NCC(O)c1ccc(O)cc1` (configuration not stated) [octopamine hydrochloride], the log is 0.097.

Consider `O=C1c2ccccc2-c2cccc3cccc1c23` [benzanthrone], for which the log was 0.164.

`CC(=O)O[C@H]1C[C@@H]2CC[C@@H]3[C@H](CC[C@@]4(C)[C@H]3C[C@H]([N+]3(C)CCCCC3)[C@@H]4OC(C)=O)[C@@]2(C)C[C@@H]1[N+]1(C)CCCCC1` [pancuronium bromide]: the log is -0.033.

For the molecule `C[C@]12CCC(=O)C[C@@H]1CC[C@@H]1[C@@H]2CC[C@]2(C)C(=O)CC[C@@H]12` [5alpha-androstan-3,17-dione], the log was 0.127.

As for `CC1C=CC=CCCC=CC=CC=CC=CC(OC2OC(C)C(O)C(N)C2O)CC2OC(O)(CC(O)C(O)CCC(O)CC(O)CC(O)CC(=O)OC(C)C(C)C1O)CC(O)C2C(=O)O` (configuration not stated) [nystatin], the log was -0.149.

For `CC(=O)O[C@H]1CC[C@@]2(C)[C@H](CC[C@@H]3[C@@H]2CC[C@]2(C)[C@@H](C4=CC(=O)OC4)[C@@H](OC(C)=O)C[C@]32O)C1` [gitoxigenin diacetate], the log is -1.36.

For `C[C@@H]1C[C@H](O)[C@@]2(O)[C@]13CC(=O)OC[C@@]2(C)[C@@](C)(O)C(=O)C3` [pseudo-anisatin], the log came to 0.204.
